Assay [1] concerns the target T1, human PRL1 (human), Q93096.
T1 chain: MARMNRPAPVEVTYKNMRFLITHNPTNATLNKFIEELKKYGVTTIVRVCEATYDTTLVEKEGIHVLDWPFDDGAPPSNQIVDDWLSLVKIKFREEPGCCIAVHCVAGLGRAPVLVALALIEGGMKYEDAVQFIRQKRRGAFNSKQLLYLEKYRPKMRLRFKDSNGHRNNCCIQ
Kind of assay: AUC; sedimentation velocity, 20 °C, ∼50 μM protein, 20 mM Hepes pH 7.5, 100 mM NaCl, 5 mM TCEP (reducing conditions); absorbance at 280 nm, c(s) distribution; both purified. The settings on record: remark: other sources report otherwise.

Assay [2] deals with T2, human PRL1 in the presence of 1 mM H2O2 (disulfide form) (human), Q93096.
T2 chain: T1 chain
Kind of assay: AUC; sedimentation velocity, 20 °C, ∼50 μM protein, 20 mM Hepes pH 7.5, 100 mM NaCl, 1 mM H2O2 without TCEP; both purified. Particulars: remark: other sources report otherwise.

Assay [3] has as its target GPLGS-CBS-pair of D. melanogaster CNNM (D. melanogaster). Kind of assay: crystal structure; complex mixed 2:1 (PRL:CBS-pair), purified on Superdex-200; sitting drop, 0.1 M Bis-tris propane pH 6.5, 17% PEG3350, 0.2 M NaI, 4 °C; 2.5 Å, P4(1)2(1)2; both purified.

Results are given in words; binding and its absence hold for the method and conditions named. Some results given as binding are weak or reduced against the parent protein; the word gives no strength.

B1: human PRL1, Q93096 1-173 (enzyme)
chain: T1 chain
As for B1, in assay [1], the binding entry is “no binding (tested: ∼50 μM)”.

B2: human PRL1 in the presence of 1 mM H2O2 (disulfide form), Q93096 1-173 (enzyme)
chain: T1 chain
modifications: here or on the partner: disulfide of the catalytic cysteine (formed with 1 mM H2O2); disulfide of the catalytic cysteine (formed with 1 mM H2O2)
On to B2, for which the binding entry in assay [2] is listed as “no binding (tested: ∼50 μM)”.

B3: D. melanogaster PRL (res. 14–165) C104A (enzyme, UniProt O61722 14-165)
chain: PALIEYKGMKFLITDRPSDITINHYIMELKKNNVNTVVRVCEPSYNTDELETQGITVKDLAFEDGTFPPQQVVDEWFEVLKDKYQQNPEAAVAVHCVAGLGRAPVLVALALIELGLKYEAAVEMIRDKRRGAINAKQLSFLEKYKPKARLKH
Consider B3, for which, in assay [3], the binding entry is recorded as “binds”.

The values are drawn from article PMC10040874.
